Results are given in words; binding and its absence hold for the method and conditions named. In cells and extracts the contact can be indirect. Some results given as binding are weak or reduced against the parent protein; the word gives no strength.
Tests used:
[1] = target: PD-L1 (human (endogenous in A375)) (UniProt Q9NZQ7); experiment: co-IP; cell surface immunoprecipitation: live A375 cells incubated with antibodies to the extracellular domains of CD58 or PD-L1 for 2 h at 4°C, unbound antibody washed off, lysis in 1% digitonin buffer, Protein G Dynabeads, immunoblot
[2] = target: CD58 (LFA-3) (human (endogenous in A375)) (UniProt P19256); experiment: as above
[3] = target: PD-L1 (human (endogenous in A375)) (UniProt Q9NZQ7); experiment: co-IP; whole-cell lysates of A375 cells in 1% digitonin, 50 mM Tris-HCl pH 7.5, 150 mM NaCl; anti-CMTM6, anti-CD58 or anti-PD-L1 antibody 2 h at 4°C, Protein G Dynabeads, immunoblot; knockout cells (CMTM6, CD58, PD-L1) as controls of antibody specificity
[4] = target: CD58 (LFA-3) (human (endogenous in A375)) (UniProt P19256); experiment: as above

Chains of the proteins cited; added tags and fusions are not shown. Residues count along the entry.
UniProt Q9NZQ7, residues 19-290: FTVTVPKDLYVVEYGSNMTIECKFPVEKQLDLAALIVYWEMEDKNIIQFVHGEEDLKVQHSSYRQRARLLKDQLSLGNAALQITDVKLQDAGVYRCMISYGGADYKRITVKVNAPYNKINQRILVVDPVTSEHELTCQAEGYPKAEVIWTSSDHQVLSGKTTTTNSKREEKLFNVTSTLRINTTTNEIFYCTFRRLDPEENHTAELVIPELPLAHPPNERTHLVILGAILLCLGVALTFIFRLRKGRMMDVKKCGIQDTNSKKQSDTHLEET
UniProt P19256, residues 29-250: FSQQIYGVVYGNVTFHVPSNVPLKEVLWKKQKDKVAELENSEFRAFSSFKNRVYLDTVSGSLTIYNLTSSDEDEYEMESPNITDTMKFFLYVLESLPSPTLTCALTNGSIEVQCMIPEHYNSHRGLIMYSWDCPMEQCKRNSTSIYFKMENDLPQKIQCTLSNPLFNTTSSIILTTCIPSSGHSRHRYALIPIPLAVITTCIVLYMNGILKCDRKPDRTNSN

Measured: binding

B1: CMTM6 (CKLF like MARVEL transmembrane domain containing 6) (protein, UniProt Q9NX76 1-183)
chain: MENGAVYSPTTEEDPGPARGPRSGLAAYFFMGRLPLLRRVLKGLQLLLSLLAFICEEVVSQCTLCGGLYFFEFVSCSAFLLSLLILIVYCTPFYERVDTTKVKSSDFYITLGTGCVFLLASIIFVSTHDRTSAEIAAIVFGFIASFMFLLDFITMLYEKRQESQLRKPENTTRAEALTEPLNA
binds: all assays above

Source: article PMC11113010
